Data as given in PubChem BioAssay AID686943 (Drosophila RNAi Screening Center, 2013).
The deposit covers about 23,000 reagents; shown is a random part of those that have a named target and a result. 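Extra replicates exist only for a retested subset of genes; insulin dose and duration not given; both raised and lowered dpERK matter.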 The numbers tell different reagents against one gene apart. A plus sign joins genes that one reagent is predicted to hit. Not all columns of the deposit are shown. Not given: the amount of reagent, the time to read-out.

Purpose: 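Fly genes whose loss alters ERK activation after insulin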 (primary screen)
System: Drosophila S2R+ haemocyte-like cells expressing YFP-tagged ERK (Rolled)
Reagents: long dsRNA against Drosophila genes
Treatment: insulin stimulation versus unstimulated cells; dose and duration not given
Measurement: 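Antibody staining for doubly phosphorylated ERK divided by ERK-YFP signal, as plate z-scores, in insulin-treated and untreated cells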
Direction: replicate 1, z-score of dpERK with insulin: higher = more active ERK per ERK-YFP after insulin

What did the screen give for CG6805?
replicate 1, z-score of dpERK with insulin: 0.73

How did the screen score CG13807?
replicate 1, z-score of dpERK with insulin: 1.09

With Rab2, how do the results read?
replicate 1, z-score of dpERK with insulin: -0.08

With CG13073, what was measured?
replicate 1, z-score of dpERK with insulin: 1.33

For Hcs (Holocarboxylase synthetase) #1, what was measured?
replicate 1, z-score of dpERK with insulin: 0.62

What is on record for Hcs (Holocarboxylase synthetase) #2?
replicate 1, z-score of dpERK with insulin: -0.22

What is on record for CG31441?
replicate 1, z-score of dpERK with insulin: -0.08

With CG12091, how do the results read?
replicate 1, z-score of dpERK with insulin: 0.18

With cN-IIIB (cytosolic 5'-nucleotidase IIIB), what does the deposit list?
replicate 1, z-score of dpERK with insulin: -0.12

With CG11317, how do the results read?
replicate 1, z-score of dpERK with insulin: -0.38

For HDAC11 (Histone deacetylase 11), what does the deposit list?
replicate 1, z-score of dpERK with insulin: -0.01

For CG5390, how do the results read?
replicate 1, z-score of dpERK with insulin: 1.36

Which result is listed for Kank #1?
replicate 1, z-score of dpERK with insulin: 0.49

What is on record for Kank #2?
replicate 1, z-score of dpERK with insulin: 0.28

With CG5225, what does the deposit list?
replicate 1, z-score of dpERK with insulin: 0.25

With Lst (Limostatin), how do the results read?
replicate 1, z-score of dpERK with insulin: 1.07

For Gprk2 (G protein-coupled receptor kinase 2), what does the deposit list?
replicate 1, z-score of dpERK with insulin: -0.44

For CG9416, what was measured?
replicate 1, z-score of dpERK with insulin: 0.51

For VAChT + ChAT, what was measured?
replicate 1, z-score of dpERK with insulin: 0.74

For mEFTs (mitochondrial translation elongation factor Ts), what was measured?
replicate 1, z-score of dpERK with insulin: -0.52

What did the screen give for wus (wurst)?
replicate 1, z-score of dpERK with insulin: 0.41

With CG31855, how do the results read?
replicate 1, z-score of dpERK with insulin: -1.85

For zpg (zero population growth), what does the deposit list?
replicate 1, z-score of dpERK with insulin: 0.24

For Cyt-b5-r (Cytochrome b5-related), what was measured?
replicate 1, z-score of dpERK with insulin: 0.92

For Csas (CMP-sialic acid synthase), what was measured?
replicate 1, z-score of dpERK with insulin: 1.07

For CG7840, what does the deposit list?
replicate 1, z-score of dpERK with insulin: 0.45

For CG13055, what was measured?
replicate 1, z-score of dpERK with insulin: -0.21

How did the screen score TwdlP (TweedleP)?
replicate 1, z-score of dpERK with insulin: -0.66

For Cyp6t1 (Cytochrome P450 6t1), what was measured?
replicate 1, z-score of dpERK with insulin: 0.46

What did the screen give for 5-HT1A (5-hydroxytryptamine (serotonin) receptor 1A)?
replicate 1, z-score of dpERK with insulin: -0.11

How did the screen score RpS29 + snoRNA:Psi18S-1275?
replicate 1, z-score of dpERK with insulin: -1.6
